Experimental findings from PubChem BioAssay AID328 (DTP/NCI, 2004) are described below.

The list shows only some results of the screen, not a fair sample: it gathers tests that were run many times, whatever their T/C, doses with no T/C, and many T/C values between a quarter and a half above the control. Other doses and runs of a compound stand elsewhere. T/C is the treated group as % of the vehicle group. Some entries give survivors of the animals treated and no T/C: the source holds a T/C of zero for them, seemingly a mark for toxic or unscored doses. Some doses without a T/C left all or most animals alive at the check, yet need not have been tolerated: the source hardly ever lists a survival T/C far under the control, and the zero likely stands for such cases as well. Survivors were counted at the toxicity check, usually on the fifth day, unless a day is given; later deaths do not show. Schedules are NCI's codes, read here as Q, the interval in days (D) or hours (H), X, the number of doses. Some doses were run more than once; their values stand side by side, smallest first. Some schedule codes hold Z or #, which are not explained here. Where survival is the endpoint, this PubChem deposit counts one and a half times the control or more as active, and values a quarter to a half above the control carry no call in these data; other NCI protocols may use other cut-offs. Some T/C values are followed by the survivors on the day toxicity was checked, most often the fifth; without a count, all were alive then.

The test deals with BDF1 mice, P388 leukemia ip, median survival T/C. The experiment in a line: NCI In Vivo Anticancer Drug Screen. Data for tumor model P388 Leukemia (intraperitoneal) in B6D2F1 (BDF1) mice. The following applies: T/C endpoint: median survival time, higher T/C = longer survival. The essentials: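 Survival ratio, drug arm over vehicle arm, in mice with a transplanted tumour.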
Where [1] appears, read: dose: 25.0 mg/kg/injection, schedule: Q01DX009 (ip), vehicle: saline.
Where [2] appears, read: dose: 50.0 mg/kg/injection, schedule: Q01DX009 (ip), vehicle: saline.
Setting [3] is: dose: 75.0 mg/kg/injection, schedule: Q01DX009 (ip), vehicle: saline.
The mark [4] stands for this setting: dose: 4.12 mg/kg/injection, schedule: Q01DX009 (ip), vehicle: saline.
[5] abbreviates: dose: 6.25 mg/kg/injection, schedule: Q01DX009 (ip), vehicle: saline.
The mark [6] stands for this setting: dose: 9.37 mg/kg/injection, schedule: Q01DX009 (ip), vehicle: saline.
Where [7] appears, read: dose: 12.5 mg/kg/injection, schedule: Q01DX009 (ip), vehicle: saline.

In the case of `COc1ccc(C(SCC(N)C(=O)O)(c2ccccc2)c2ccccc2)cc1` (centres undefined), the T/C was 141 % of control [5 of 6 alive] (dose: 3.12 mg/kg/injection, schedule: Q01DX009 (ip), vehicle: Klucel (hydroxypropylcellulose) (HPC)); 136 % of control (dose: 4.12 mg/kg/injection, schedule: Q01DX009 (ip), vehicle: Klucel (hydroxypropylcellulose) (HPC)); 145 % of control (dose: 12.5 mg/kg/injection, schedule: Q01DX009 (ip), vehicle: Klucel (hydroxypropylcellulose) (HPC)); 145 % of control (dose: 22.0 mg/kg/injection, schedule: Q04DX003 (ip), vehicle: Klucel (hydroxypropylcellulose) (HPC)). Also, the survivor count reads like this: (dose: 25.0 mg/kg/injection, schedule: Q01DX009 (ip), vehicle: Klucel (hydroxypropylcellulose) (HPC)) 6 of 6; (dose: 50.0 mg/kg/injection, schedule: Q01DX009 (ip), vehicle: Klucel (hydroxypropylcellulose) (HPC)) 3 of 6; (dose: 100.0 mg/kg/injection, schedule: Q01DX009 (ip), vehicle: Klucel (hydroxypropylcellulose) (HPC)) 0 of 6 and 6 of 6; (dose: 100.0 mg/kg/injection, schedule: Q04DX003 (ip), vehicle: Klucel (hydroxypropylcellulose) (HPC)) 4 of 6; (dose: 150.0 mg/kg/injection, schedule: Q04DX003 (ip), vehicle: Klucel (hydroxypropylcellulose) (HPC)) 1 of 6; (dose: 200.0 mg/kg/injection, schedule: Q04DX003 (ip), vehicle: Klucel (hydroxypropylcellulose) (HPC)) 5 of 6 and 6 of 6.
For `C#CCSC(=N)N`, the T/C under setting [1] is 130 % of control. Moreover, the survivor count is 6 of 6 under setting [2]; 0 of 6 and 2 of 6 under setting [3]; 0 of 6 (dose: 150.0 mg/kg/injection, schedule: Q04DX003 (ip), vehicle: saline).
In the case of `c1nc(SC2=NCCN2)c2[nH]cnc2n1`, the T/C runs as follows: under setting [4], 140 % of control; under setting [5], 127 % of control; under setting [6], 145 % of control; (dose: 18.0 mg/kg/injection, schedule: Q01DX009 (ip), vehicle: saline) 135 % of control; (dose: 28.0 mg/kg/injection, schedule: Q01DX009 (ip), vehicle: saline) 140 % of control; (dose: 40.0 mg/kg/injection, schedule: Q01DX009 (ip), vehicle: saline) 140 % of control [5 of 6 alive]. Further, the T/C under setting [2] is 126 and 138 % of control. Also, the survivor count by setting is: (dose: 25.0 mg/kg/injection, schedule: Q04DX003 (ip), vehicle: saline) 3 of 6; under setting [2], 3 of 6; (dose: 50.0 mg/kg/injection, schedule: Q04DX003 (ip), vehicle: saline) 3 of 6; under setting [3], 0 of 6 and 3 of 6.
Take `Cc1ccc(S(=O)(=O)NC(=O)C2C(=O)CC3(CCCCC3)CC2=O)cc1`: the T/C (dose: 200.0 mg/kg/injection, schedule: Q01DX009 (ip), vehicle: Klucel (hydroxypropylcellulose) (HPC)) is 125 % of control.
As for `c1ccc(-c2cc3c(N4CCOCC4)nnc(N4CCOCC4)c3cn2)cc1`, the survivor count (dose: 200.0 mg/kg/injection, schedule: Q01DX009 (ip), vehicle: saline with Tween-80) is recorded as 6 of 6.
On to `CCOC(=O)NCCCCCCNC(=O)OCC`, for which the survivor count runs as follows: (dose: 100.0 mg/kg/injection, schedule: Q04DX003 (ip), vehicle: saline with Tween-80) 6 of 6; (dose: 400.0 mg/kg/injection, schedule: Q04DX003 (ip), vehicle: saline with Tween-80) 5 of 6.
Regarding `C[n+]1c2ccccc2c(Nc2ccc(NS(=O)(=O)CCCCN=C(N)N)cc2)c2ccc(N)cc21`, the survivor count (dose: 12.0 mg/kg/injection, schedule: Q01DX009 (ip), vehicle: water) is reported as 10 of 10 and the survivor count (dose: 24.0 mg/kg/injection, schedule: Q01DX009 (ip), vehicle: water) is on record as 3 of 10.
Regarding `CS(C)=O.CS(C)=O.CS(C)=O.[Cl][Rh]([Cl])[Cl]`, the survivor count under setting [5] is on record as 6 of 6; the survivor count under setting [7] is given as 6 of 6; the survivor count under setting [1] was 6 of 6; the survivor count under setting [2] is 6 of 6; the survivor count (dose: 100.0 mg/kg/injection, schedule: Q01DX009 (ip), vehicle: saline) is 1 of 6 and 2 of 6; the survivor count (dose: 200.0 mg/kg/injection, schedule: Q01DX009 (ip), vehicle: saline) is 0 of 6. The survivor count reads like this: (dose: 200.0 mg/kg/injection, schedule: Q04DX003 (ip), vehicle: saline) 2 of 6; (dose: 400.0 mg/kg/injection, schedule: Q04DX003 (ip), vehicle: saline) 1 of 6.
With `CC(=O)O[C@H]1[C@H]2O[C@]23[C@@H]2CC[C@@H]4C[C@@H](OC(=O)CCC(=O)O)CC[C@]4(C)[C@H]2CC[C@]3(C)[C@H]1c1ccc(=O)oc1`, the survivor count (dose: 1.0 mg/kg/injection, schedule: Q01DX009 (ip), vehicle: Klucel (hydroxypropylcellulose) (HPC)) is 3 of 6.
Consider `C#CCOCC(CCl)OC(=O)Nc1ccccc1` (centres undefined), for which, where the note is “dose: 200.0 mg/kg/injection, schedule: Q04DX003 (ip), vehicle: saline with Tween-80”, the survivor count is recorded as 6 of 6.
As for `CC1C=NNC1=O` (centres undefined), the T/C is, setting by setting: (dose: 200.0 mg/kg/injection, schedule: Q01DX001 (ip), vehicle: saline with Tween-80) 131 % of control; (dose: 265.0 mg/kg/injection, schedule: Q01DX009 (ip), vehicle: Klucel (hydroxypropylcellulose) (HPC)) 129 % of control; (dose: 400.0 mg/kg/injection, schedule: Q01DX001 (ip), vehicle: saline with Tween-80) 127 % of control; (dose: 400.0 mg/kg/injection, schedule: Q01DX009 (ip), vehicle: Klucel (hydroxypropylcellulose) (HPC)) 127 % of control.
With `NNC(=O)c1cnccn1`, the survivor count is on record as 0 of 6 (dose: 20.0 mg/kg/injection, schedule: Q01DX010 (ip), vehicle: water); 1 of 6 (dose: 100.0 mg/kg/injection, schedule: Q01DX010 (ip), vehicle: water); 0 of 6 (dose: 120.0 mg/kg/injection, schedule: Q01DX010 (ip), vehicle: water); 0 of 6 (dose: 140.0 mg/kg/injection, schedule: Q01DX010 (ip), vehicle: water).
For the molecule `CCCCC[C@H](O)/C=C/[C@@H]1[C@@H](C/C=C\CCCC(=O)O)[C@@H](O)C[C@H]1O`, the survivor count was 6 of 6 (dose: 2.0 mg/kg/injection, schedule: Q#A X020 (ip), vehicle: saline) and 6 of 6 (dose: 5.0 mg/kg/injection, schedule: Q04DX003 (ip), vehicle: saline with Tween-80). Besides, under “dose: 10.0 mg/kg/injection, schedule: Q04DX002 (ip), vehicle: saline”, the T/C is 131 % of control.
Regarding `CN1Cc2cc3cc(c2O)C[N+](C)(C)Cc2c(Cl)c(c(Cl)c(c2Cl)C[N+](C)(C)C3)C1`, the T/C under setting [7] is 127 % of control. In addition, where the note is “dose: 100.0 mg/kg/injection, schedule: Q01DX001 (ip), vehicle: saline”, the survivor count is given as 1 of 6.
As for `CN(C)N=Nc1ccc(NC(N)=O)cc1`, under “dose: 50.0 mg/kg/injection, schedule: Q04DX003 (ip), vehicle: saline + Tween-80 + alcohol”, the T/C is 144 % of control. Further, the survivor count (dose: 100.0 mg/kg/injection, schedule: Q04DX003 (ip), vehicle: saline + Tween-80 + alcohol) is reported as 5 of 6 and the survivor count (dose: 200.0 mg/kg/injection, schedule: Q04DX003 (ip), vehicle: saline + Tween-80 + alcohol) was 0 of 6.
With `CC[P+]1(c2ccccc2)CCCc2ccc3ccccc3c21` (centres undefined), the T/C was 126 % of control under setting [4]; 125 and 142 % of control under setting [5]; 131 % of control under setting [6]; 140 % of control [5 of 6 alive] (dose: 13.8 mg/kg/injection, schedule: Q01DX009 (ip), vehicle: saline); 130 % of control (dose: 21.0 mg/kg/injection, schedule: Q01DX009 (ip), vehicle: saline). Besides, the survivor count reads like this: (dose: 45.0 mg/kg/injection, schedule: Q01DX009 (ip), vehicle: saline) 0 of 6; (dose: 70.0 mg/kg/injection, schedule: Q01DX009 (ip), vehicle: saline) 0 of 6.
